Assay: peptide synthesis
Details: purification step, diacetate

caspofungin
final HPLC purity (Rel. Area): 98.43% | step yield (based on yield and input before column step): 94.7% | step yield (overall over both runs): 96.2%

— US9828411 (dated 2017)
